Reference: PubChem BioAssay AID624297 (National Center for Advancing Translational Sciences (NCATS), 2012)
About 6,200 (1.8%) of roughly 340,000 compounds were called active. Inconclusive results, whose numbers are uncertain, are shown with a selection of clear calls. Calls follow the shape of the dose curve; as a rule, active = well fitted activation curve with a large enough effect; inconclusive = small, poorly fitted or top-dose-only effect; inactive = no such curve, though single readings can be large or run the other way. Potencies beside an inconclusive call are fits to weak or partial responses and may not hold up.
Potency is read from the fitted curve at half-maximal effect.

Assay: A quantitative high throughput screen for small molecules that induce DNA re-replication in SW480 colon adenocarcinoma cells. Also: nearly all actives have a fitted effect of over 55% in size. As to re-replication activation: % of control where 0% means no effect.
Settings: Hoechst DNA content imaging, 48 h; re-replication activation: at 46.1 µM (top of the series) unless noted
Procedure, shortened: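 Image-based read-out: total Hoechst fluorescence of nuclei (405 nm excitation, 500-530 nm emission), with hits raising the fraction of high-intensity nuclei. SW480 colon cells incubated 48 hr with compounds at 37 C.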
With Cc1cc(N)ccc1NC(=O)CN1CCOCC1 the “re-replication activation” value was inactive: -6.27%.
With COc1cc(/C=C/C(=O)O)cc(S(=O)(=O)Nc2ccc(S(=O)(=O)N3CCCCC3)cc2)c1OC the Potency was inconclusive: 32.6 µM [activator, single point].
In the case of Cc1ccc(S(=O)(=O)N2CCCCC2CCNC(=O)C(=O)NCCc2ccco2)cc1 (stereo not drawn), the Potency is reported as active: 6.51 µM.
In the case of COc1ccc(/C(N)=N/OC(=O)N2CCOCC2)cc1, the Potency is reported as inconclusive: 18.4 µM [activator, single point].
For Clc1ccc(C(Cn2ccnc2)OCc2ccsc2Cl)c(Cl)c1 (stereo not drawn), the Potency was inconclusive: 33.5 µM [activator, partial curve, poor fit].
With N/N=C1\CCCc2c1[nH]c1ccc([N+](=O)[O-])cc21 the Potency was inconclusive: 14.6 µM [activator, partial curve, poor fit].
In the case of O=C(N/N=C\c1ccc([N+](=O)[O-])o1)C1COc2ccccc2O1 (stereo not drawn), the Potency is reported as inconclusive: 6.51 µM [activator, single point].
For COc1ccc(OCC(=O)Nc2ccccc2N2CCCCC2)cc1, the Potency was active: 11.6 µM.
With Nc1cccc(-c2cc(-c3ccccc3)nc(-c3cccc(N)c3)n2)c1 the Potency was inconclusive: 29.1 µM [activator, single point].
In the case of CCN1CCN(S(=O)(=O)c2ccc(Cl)c(C(=O)N(C)CCOc3ccc(Cl)cc3)c2)CC1, the Potency is reported as inconclusive: 20.6 µM [activator, single point].
For CSc1nc(/C=C2\C=Nc3ccccc32)c(O)n1C, the Potency was inconclusive: 6.51 µM [activator, single point].
With NC(=O)c1nsc(C(=O)N(c2cccc(F)c2)C(C(=O)NC2CCCC2)c2ccco2)c1N (stereo not drawn) the Potency was inconclusive: 7.31 µM [activator, partial curve, poor fit].
In the case of CC(C)Oc1ccc(C(=O)Nc2nnc(C3=COCCO3)o2)cc1, the Potency is reported as inconclusive: 15.8 µM [activator, partial curve, poor fit].
With CCn1c(C)cc(C(=O)CSc2nnc(-c3ccco3)o2)c1C the Potency was active: 6.51 µM.
With O=C(O)c1ccc(N2C(=O)c3cccc4c(C(=O)O)ccc(c34)C2=O)cc1 the Potency was inconclusive: 2.59 µM [activator, partial curve, poor fit].
With COc1ccc2c(=O)c(N3C(=O)c4ccccc4C3=O)coc2c1 the “re-replication activation” value was inactive: -8.36%.
For COc1ccccc1-c1nc(-c2ccccc2)nc(N2CCN(C)CC2)c1C#N, the Potency was inconclusive: 25.9 µM [activator, partial curve, poor fit].
For Cc1cccc(-n2c(SCC(=O)Nc3cccc(S(=O)(=O)NC4=NCCCCC4)c3)nc3ccccc3c2=O)c1C, the Potency was inconclusive: 23.1 µM [activator, single point].
With C=CCn1c(Cc2cccs2)nnc1SCC(=O)c1ccc(F)cc1 the Potency was inconclusive: 25.9 µM [activator, partial curve, poor fit].
In the case of CCOC(=O)N1CCC(NC(=O)c2cc(-c3ccc(OC)cc3)nc3ccccc23)CC1, the Potency is reported as inconclusive: 5.8 µM [activator, single point].
In the case of O=C(Nc1ccccc1N(C(=O)c1ccco1)S(=O)(=O)c1cccs1)c1ccco1, the Potency is reported as inconclusive: 29.1 µM [activator, single point].
With CCc1ccc(C2NC(=S)NC3=C2C(=O)N(c2ccccc2OC)C(c2ccc(CC)cc2)N3)cc1 (stereo not drawn) the Potency was inconclusive: 23.1 µM [activator, single point].
For Cc1ccc(C)c(S(=O)(=O)N2CCN(C(=O)c3ccc(-n4cncn4)c([N+](=O)[O-])c3)CC2)c1, the “re-replication activation” value was inactive: -9.42%.
With COC(=O)c1cccc(Nc2nc3ccccc3nc2C)c1 the “re-replication activation” value was inactive: 0.564%.
In the case of CC1(C(=O)O)CCC(C(=O)NNC(=O)c2ccccc2O)C1(C)C (stereo not drawn), the Potency is reported as inconclusive: 29.1 µM [activator, single point].
With Cc1cc(C)n2nc(CNS(=O)(=O)c3ccc([N+](=O)[O-])cc3)nc2n1 the Potency was inconclusive: 18.4 µM [activator, partial curve].
For Cc1ccc(NC(=O)CSc2cccc3cccnc23)c(C)c1, the Potency was inconclusive: 29.1 µM [activator, single point].
For O=C(CSCc1c(Cl)cccc1Cl)NCC1CCCO1 (stereo not drawn), the “re-replication activation” value was inactive: -13.2%.
With Cc1cc(C(=O)c2ccccc2)c(NC(=O)CCl)s1 the Potency was inconclusive: 18.4 µM [activator, partial curve, poor fit].
For CC(=O)N1c2ccc(S(=O)(=O)N3CCCC(C(=O)N4CCCC(C)C4)C3)cc2CC1C (stereo not drawn), the “re-replication activation” value was inactive: -20.4%.
For CS(=O)(=O)N1CCCC(C(=O)N2CCN(c3cccc(Cl)c3)CC2)C1 (stereo not drawn), the “re-replication activation” value was inactive: -9.56%.
For CC(=NNC(=S)Nc1cccc(C)c1)c1ccccn1, the Potency was inconclusive: 0.731 µM [activator, full curve, poor fit].
With O=C1C=CC(=O)N1 the “re-replication activation” value was inactive: 4.6%.
With O=[N+]([O-])c1ccccc1N/N=C/c1cccc(O)c1O the Potency was inconclusive: 29.1 µM [activator, single point].
For O=C(CNC(=S)N(CCCN1CCOCC1)Cc1cccs1)NCc1ccccc1, the “re-replication activation” value was inactive: 3.65%.
In the case of CC(Oc1ccc(F)cc1)C(=O)N(CCC1=CCCCC1)c1c(N)n(Cc2ccccc2)c(=O)[nH]c1=O (stereo not drawn), the Potency is reported as inconclusive: 29.1 µM [activator, single point].
For CC(SCC(=O)Nc1ccc(F)cc1)c1nc2ccccc2c(=O)[nH]1 (stereo not drawn), the “re-replication activation” value was inactive: 0.112%.
In the case of CC(C)=NNc1nc2c(c(=O)[nH]c(=O)n2C)n1CCc1ccccc1, the Potency is reported as inconclusive: 14.6 µM [activator, single point].
In the case of Cc1ccccc1/C=N/n1c(-c2cc(-c3ccccc3)n[nH]2)n[nH]c1=S, the Potency is reported as inconclusive: 29.1 µM [activator, single point].
In the case of O=C(Nc1ncccn1)c1cc(-c2ccc(F)cc2)nc2ccccc12, the Potency is reported as inconclusive: 0.0046 µM [activator, partial curve, poor fit].
With OC[C@@H]1[C@@H](c2ccc(F)cc2)C(c2ccccc2)=NN1c1ccccc1 the Potency was active: 18.4 µM.
With N=C1SCC(=O)N1c1ncc(Cc2ccccc2Cl)s1 the Potency was inconclusive: 29.1 µM [activator, partial curve, poor fit].
For COc1ccc(-n2c(C)c(C)c3c(NCCN(C)C)ncnc32)cc1, the “re-replication activation” value was inactive: -11.5%.
